One sequence from publication PMC5996148 can be followed below.

Assay in all cases: protein microarray (ProtoArray v5.0), streptavidin-Alexa Fluor 647
What all share (details): 3'-biotin; 20 mM Tris (pH 7.5), 5 mM MgCl2, 100 mM KCl, 0.1% Tween-20, A/T-rich and random oligonucleotide blockers; temperature not stated; high values mean tight binding

Test [1] deals with T1, SPATS2 (UniProt Q86XZ4).
T1 sequence: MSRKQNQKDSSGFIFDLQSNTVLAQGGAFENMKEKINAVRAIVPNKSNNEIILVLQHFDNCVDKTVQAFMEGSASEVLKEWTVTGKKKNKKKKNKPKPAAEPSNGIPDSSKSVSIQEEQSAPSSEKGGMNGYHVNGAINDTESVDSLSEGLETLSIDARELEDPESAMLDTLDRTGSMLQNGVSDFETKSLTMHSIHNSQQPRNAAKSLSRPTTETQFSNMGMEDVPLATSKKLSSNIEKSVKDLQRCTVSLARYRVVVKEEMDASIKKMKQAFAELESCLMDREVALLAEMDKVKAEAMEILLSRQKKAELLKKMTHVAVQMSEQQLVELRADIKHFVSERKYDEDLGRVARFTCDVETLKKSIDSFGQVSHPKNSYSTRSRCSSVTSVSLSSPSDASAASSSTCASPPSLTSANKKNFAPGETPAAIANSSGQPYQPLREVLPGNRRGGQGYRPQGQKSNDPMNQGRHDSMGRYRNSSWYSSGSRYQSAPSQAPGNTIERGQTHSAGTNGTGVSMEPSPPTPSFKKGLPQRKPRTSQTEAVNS

In test [2] the test system is SPDEF (human).
Test [3] deals with SPG21 (human).
Test [4] has as its system SPHK1 (human).
For test [5], the target named is T2, SPRR4 (UniProt Q96PI1).
T2 sequence: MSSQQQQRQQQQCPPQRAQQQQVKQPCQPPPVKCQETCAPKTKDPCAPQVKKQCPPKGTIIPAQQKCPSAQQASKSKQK

Test [6] relates to SRPX2 (human).
Test [7] deals with T3, SS18L2 (UniProt Q9UHA2).
T3 sequence: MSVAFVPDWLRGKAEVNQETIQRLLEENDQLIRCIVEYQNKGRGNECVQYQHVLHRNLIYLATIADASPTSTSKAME

The subject of test [8] is SSBP3 (human).
Test [9] deals with SSPN (human).
The subject of test [10] is STAM (human).

Some of the results follow. For some of these results: The source does not settle which construct or isoform was used.

With “GGTGACAGGGGTATGGGGAGGGG [G4-2 biotinylated (Ct1)]”, the binding signal is 3.78 z-score in test [1]; -0.387 z-score in test [2]; -0.406 z-score in test [3]; -0.38 z-score in test [4]; 6.44 z-score in test [5]; -0.366 z-score in test [6]. The binding signal is -0.399 z-score in test [7], -0.409 z-score in [8], -0.361 z-score in [9] and -0.358 z-score in test [10].
